Data published in US20240294545A1 (CSPC Zhongqi Pharmaceutical Technology (Shijiazhuang) Co., …, priority 2020, published 2024).
At least one structure is not confirmed: it was looked up by name or label, or the drawing left a doubt.

Amino acid sequences for entries named in this document (tags omitted). A change or cut given only in a name is not applied to a line headed by its entry.
UniProt Q13315: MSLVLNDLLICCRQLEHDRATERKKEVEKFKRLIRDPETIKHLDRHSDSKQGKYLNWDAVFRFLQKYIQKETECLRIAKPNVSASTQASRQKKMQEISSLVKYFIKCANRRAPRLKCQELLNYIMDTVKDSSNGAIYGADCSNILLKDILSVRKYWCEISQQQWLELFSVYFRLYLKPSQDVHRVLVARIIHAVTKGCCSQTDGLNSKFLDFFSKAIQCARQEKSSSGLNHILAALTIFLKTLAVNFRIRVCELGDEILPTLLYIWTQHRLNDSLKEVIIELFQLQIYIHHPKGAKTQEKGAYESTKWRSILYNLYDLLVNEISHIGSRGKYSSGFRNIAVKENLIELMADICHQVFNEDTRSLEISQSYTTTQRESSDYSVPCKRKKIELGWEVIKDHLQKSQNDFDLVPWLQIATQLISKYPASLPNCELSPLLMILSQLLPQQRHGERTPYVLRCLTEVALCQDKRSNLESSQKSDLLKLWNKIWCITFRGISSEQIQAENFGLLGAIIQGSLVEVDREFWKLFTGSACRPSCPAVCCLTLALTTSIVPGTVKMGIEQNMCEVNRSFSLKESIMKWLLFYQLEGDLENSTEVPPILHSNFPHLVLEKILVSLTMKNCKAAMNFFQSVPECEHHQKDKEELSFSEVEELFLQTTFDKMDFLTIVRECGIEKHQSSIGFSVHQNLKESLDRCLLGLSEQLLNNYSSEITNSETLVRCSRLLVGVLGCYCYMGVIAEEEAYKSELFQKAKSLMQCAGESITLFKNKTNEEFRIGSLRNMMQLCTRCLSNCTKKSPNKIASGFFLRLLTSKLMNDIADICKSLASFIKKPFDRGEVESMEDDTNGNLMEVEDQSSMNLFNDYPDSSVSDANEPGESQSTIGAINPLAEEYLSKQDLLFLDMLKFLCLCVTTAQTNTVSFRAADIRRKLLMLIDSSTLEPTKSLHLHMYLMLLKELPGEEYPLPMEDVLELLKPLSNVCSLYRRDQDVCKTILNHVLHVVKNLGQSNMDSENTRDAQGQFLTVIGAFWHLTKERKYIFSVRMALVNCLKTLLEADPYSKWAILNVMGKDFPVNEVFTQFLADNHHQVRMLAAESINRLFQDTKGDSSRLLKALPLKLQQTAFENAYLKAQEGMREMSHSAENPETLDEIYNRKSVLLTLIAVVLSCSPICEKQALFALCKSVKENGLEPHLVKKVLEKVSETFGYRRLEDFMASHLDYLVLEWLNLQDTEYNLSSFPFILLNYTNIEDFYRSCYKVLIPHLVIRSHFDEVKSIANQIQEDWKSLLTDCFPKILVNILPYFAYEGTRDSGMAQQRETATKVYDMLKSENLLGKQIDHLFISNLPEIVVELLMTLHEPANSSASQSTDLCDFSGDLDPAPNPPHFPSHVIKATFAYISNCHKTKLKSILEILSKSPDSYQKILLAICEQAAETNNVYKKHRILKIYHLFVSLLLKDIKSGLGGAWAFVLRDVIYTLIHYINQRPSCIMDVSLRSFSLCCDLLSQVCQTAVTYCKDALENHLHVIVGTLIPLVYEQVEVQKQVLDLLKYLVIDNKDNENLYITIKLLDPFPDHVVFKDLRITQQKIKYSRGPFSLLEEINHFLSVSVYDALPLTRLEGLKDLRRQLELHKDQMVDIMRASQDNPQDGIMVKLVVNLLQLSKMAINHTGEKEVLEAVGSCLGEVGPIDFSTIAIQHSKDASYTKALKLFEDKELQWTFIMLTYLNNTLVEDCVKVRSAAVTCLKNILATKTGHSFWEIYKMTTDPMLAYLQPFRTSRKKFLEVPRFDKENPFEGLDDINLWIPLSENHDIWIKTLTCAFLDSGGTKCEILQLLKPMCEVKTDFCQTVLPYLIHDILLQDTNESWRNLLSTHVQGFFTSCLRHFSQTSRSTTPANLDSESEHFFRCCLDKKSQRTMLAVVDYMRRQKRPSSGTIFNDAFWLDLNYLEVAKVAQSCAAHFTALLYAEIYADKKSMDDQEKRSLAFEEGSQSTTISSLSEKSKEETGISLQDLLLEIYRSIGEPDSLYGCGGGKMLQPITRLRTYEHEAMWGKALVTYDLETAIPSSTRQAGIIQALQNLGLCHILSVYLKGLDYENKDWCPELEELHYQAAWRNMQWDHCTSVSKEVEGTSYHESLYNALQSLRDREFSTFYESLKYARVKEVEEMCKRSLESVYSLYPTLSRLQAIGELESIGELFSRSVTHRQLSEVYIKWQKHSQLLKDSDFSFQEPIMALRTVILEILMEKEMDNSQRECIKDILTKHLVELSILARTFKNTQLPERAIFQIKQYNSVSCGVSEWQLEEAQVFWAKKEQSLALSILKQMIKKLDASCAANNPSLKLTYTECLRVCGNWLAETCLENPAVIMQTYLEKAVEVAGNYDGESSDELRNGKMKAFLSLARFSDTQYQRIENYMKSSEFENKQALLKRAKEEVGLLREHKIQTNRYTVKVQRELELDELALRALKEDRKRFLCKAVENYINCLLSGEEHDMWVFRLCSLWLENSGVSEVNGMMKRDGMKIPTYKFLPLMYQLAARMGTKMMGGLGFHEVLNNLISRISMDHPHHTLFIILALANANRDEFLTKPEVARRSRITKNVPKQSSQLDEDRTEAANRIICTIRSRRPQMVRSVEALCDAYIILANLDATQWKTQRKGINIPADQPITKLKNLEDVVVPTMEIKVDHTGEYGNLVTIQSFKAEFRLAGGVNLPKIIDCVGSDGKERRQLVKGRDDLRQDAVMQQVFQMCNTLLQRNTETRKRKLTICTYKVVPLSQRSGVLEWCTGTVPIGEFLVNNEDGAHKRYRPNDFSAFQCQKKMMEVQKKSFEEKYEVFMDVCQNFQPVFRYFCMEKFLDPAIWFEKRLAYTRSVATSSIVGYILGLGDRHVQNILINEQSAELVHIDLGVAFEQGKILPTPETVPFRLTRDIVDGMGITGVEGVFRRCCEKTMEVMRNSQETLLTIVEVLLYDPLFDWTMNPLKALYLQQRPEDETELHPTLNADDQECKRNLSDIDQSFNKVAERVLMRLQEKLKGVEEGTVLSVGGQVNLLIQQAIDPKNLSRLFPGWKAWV

Molecular target: ATM (Homo sapiens (Human), UniProt Q13315)
Test: Caliper mobility shift assay for ATM
Assay type: biochemical
Settings: compared with AZD1390
Protocol: 1.2 Determination of the Inhibitory Activities of Compounds on ATM: Caliper Mobility Shift Assay for ATM
To a 96-well plate, 98 μL of DMSO and 2 μL of the 10 mM stock solution were added and mixed evenly so that the concentration of the solution was 200 μM.
Based on the inhibitory rates of the compound at different concentrations, IC50 was calculated according to the formula: Y=Bottom+(Top−Bottom)/(1+(IC50/X)^HillSlope).

For `COc1cc2ncc3c4c2c(oc2ccccc2n4c(=O)n3C)c1-c1cnn(C)c1` [Example A-33, 4-methoxy-12-methyl-5-(1-methyl-1H-pyrazol-4-yl)-6-oxa-2,10b,12-triazacyclopenta[gh]pleiaden-11(12H)-one], which “inhibitory effect on ATM kinase, in words” value is on record?
Its value is “higher than that of AZD1390”.
